From patent US9856507B2, “Method for screening food ingredients and food compositions” (JAPANESE FOUNDATION FOR CANCER RESEARCH, priority 2013, dated 2018)
At least one compound was matched to its structure with a doubt left.

How the values were obtained:
hepatic stellate cells [1] = test: Cultured hepatic stellate cells treated with deoxycholic acid; type: cell-based; conditions: 200 μM deoxycholic acid; data not shown
hepatic stellate cells [2] = test: Immunostaining of senescence and SASP markers in hepatic stellate cells of the liver; type: in vivo, mice; conditions: deoxycholic acid administration group versus control group (FIG. 6D)

C[C@H](CCC(=O)O)[C@H]1CC[C@H]2[C@@H]3CC[C@@H]4C[C@H](O)CC[C@]4(C)[C@H]3C[C@H](O)[C@]12C [deoxycholic acid]
expression of SASP-related factors (hepatic stellate cells [1]): confirmed
reactive oxygen species (ROS) (hepatic stellate cells [1]): increase
expression of p21 and the SASP factors IL-1β, IL-6 and Gro-α in hepatic stellate cells (hepatic stellate cells [2]): expressed
